Data taken from the supplement of paper PMC6414424.
Where a name gives a salt, the structure may show the parent alone. ± gives the standard deviation of the averaged measurements. This is one part of the list.

These compounds were tested on APPdp1-6 iPSC-derived neurons (assay: pThr231Tau/total Tau ratio Z-score vs DMSO vehicle wells; higher = more pThr231Tau relative to total Tau). Conditions: 5 µM; treatment time 5 days.

Row | Compound | pThr231Tau/total Tau ratio Z-score
1 | CC[N+]1(C)CCCC(OC(=O)C(O)(c2ccccc2)c2ccccc2)C1 (configuration not stated) [Prestw-760] | -0.524 ± 1.5
2 | CC(C)c1cccc(C(C)C)c1O [Prestw-931] | 2.23 ± 1.5
3 | C[C@]12CC[C@H](O)C[C@H]1CC[C@@H]1[C@@H]2CC[C@]2(C)[C@@H](C3=CC(=O)OC3)CC[C@]12O [Prestw-436] | -3.96 ± 0.4
4 | CC(=O)O[C@H]1CC[C@@]2(C)C(=CC[C@@H]3[C@@H]2CC[C@]2(C)C(=O)CC[C@@H]32)C1 [Prestw-937] | 0.187 ± 0.7
5 | O=C(NCNC(=O)NC1C(=O)NC(=O)N1CO)NC1C(=O)NC(=O)N1CO (configuration not stated) [Prestw-1071] | 0.179 ± 0.33
6 | CN1C[C@H](CNC(=O)OCc2ccccc2)C[C@@H]2c3cccc4c3c(cn4C)C[C@H]21 [Prestw-364] | -2.17 ± 2.3
7 | Oc1ccc2c3c1O[C@H]1[C@@H](O)CC[C@@]4(O)[C@@H](C2)N(CC2CCC2)CC[C@]314 [Prestw-118] | -1.01 ± 0.012
8 | CCCC(C)C1(CC)C(=O)NC(=O)NC1=O (configuration not stated) [Prestw-1491] | 1.15 ± 0.15
9 | C[C@]12C[C@H]3S[C@H]3C[C@@H]1CC[C@@H]1[C@@H]2CC[C@]2(C)[C@@H](O)CC[C@@H]12 [Prestw-1006] | -0.0986 ± 0.64
10 | COP(=O)(OC)C(O)C(Cl)(Cl)Cl (configuration not stated) [Prestw-51] | -0.0436 ± 0.26
11 | ClC1C(Cl)C(Cl)C(Cl)C(Cl)C1Cl (configuration not stated) [LINDANE    (gamma-BHC)    Use: insecticide] | 1.32 ± 1.3
12 | C=CCN1CC[C@]23c4c5ccc(O)c4O[C@H]2C(=O)CC[C@@]3(O)[C@H]1C5 [Prestw-111] | -0.335 ± 0.51
13 | C[C@]12CCC(=O)C=C1C=C[C@@H]1[C@@H]2CC[C@@]2(C)[C@H]1CC[C@@]2(O)CCC(=O)O [Prestw-148] | 1.89 ± 2.7
14 | CC[C@@H](C(=O)[C@@H](C)[C@@H](O)[C@H](C)[C@@H]1O[C@@H]([C@@H](CC)C(=O)O)CC[C@@H]1C)[C@H]1O[C@]2(C=C[C@@H](O)[C@]3(CC[C@@](C)([C@H]4CC[C@](O)(CC)[C@H](C)O4)O3)O2)[C@H](C)C[C@@H]1C | -5.88 ± 0.57
15 | C(#CCN1CCCC1)CN1CCCC1 [Prestw-331] | -0.0731 ± 0.86
16 | S=C=NCc1ccccc1 | -0.0428 ± 0.16
17 | COP(=O)(OC)OC=C(Cl)Cl [DICHLORVOS    Use: insecticide, cholinesterase inhibitor] | 1.34 ± 1.1
18 | C[C@]12CC[C@H]3[C@@H](CCC4=CC(=O)CC[C@@]43C)[C@@H]1CC[C@@H]2O | 0.483 ± 0.65
19 | O=c1c2ccccc2[se]n1-c1ccccc1 [Prestw-740] | 0.266 ± 1
20 | NCC(O)c1ccc(O)cc1 (configuration not stated) [Prestw-949] | -0.201 ± 0.27
21 | C[N+]1([O-])[C@@H]2CC(OC(=O)[C@H](CO)c3ccccc3)C[C@H]1[C@@H]1O[C@@H]12 (some centres not stated) [Prestw-232] | -1.1 ± 1

Row | Compound | pThr231Tau/total Tau ratio Z-score
22 | C[N+]1(C)[C@@H]2CC(OC(=O)[C@H](CO)c3ccccc3)C[C@H]1[C@@H]1O[C@@H]12 (some centres not stated) [METHSCOPOLAMINE BROMIDE    Therap cat: anticholinergic] | 0.253 ± 1.2
23 | CC(=O)O[C@H]1C[C@@H]2CC[C@@H]3[C@H](CC[C@@]4(C)[C@H]3C[C@H]([N+]3(C)CCCCC3)[C@@H]4OC(C)=O)[C@@]2(C)C[C@@H]1[N+]1(C)CCCCC1 [Prestw-1034] | 1.05 ± 0.25
24 | CN[C@@H](C)[C@H](O)c1ccccc1 | -0.713 ± 0.77
25 | Cc1c(N)nc([C@H](CC(N)=O)NC[C@H](N)C(N)=O)nc1C(=O)N[C@H](C(=O)N[C@H](C)[C@@H](O)[C@H](C)C(=O)N[C@H](C(=O)NCCc1nc(-c2nc(C(=O)NCCC[S+](C)C)cs2)cs1)[C@@H](C)O)[C@@H](O[C@@H]1O[C@@H](CO)[C@@H](O)[C@H](O)[C@@H]1O[C@H]1O[C@H](CO)[C@@H](O)[C@H](OC(N)=O)[C@@H]1O)c1cnc[nH]1 [BLEOMYCIN (bleomycin B2 shown), antineoplastic] | -0.498 ± 0.4
26 | O=C1CC[C@@]2(O)[C@H]3Cc4ccc(O)c5c4[C@@]2(CCN3CC2CC2)[C@H]1O5 [Prestw-116] | 0.0187 ± 1.1
27 | NC(=O)c1cc([N+](=O)[O-])cc([N+](=O)[O-])c1 | 0.549 ± 1.4
28 | CN[C@@H]1[C@@H](O)[C@@H](O[C@@H]2[C@@H](O)[C@H](O[C@H]3O[C@H](CN)CC[C@H]3N)[C@@H](N)C[C@H]2N)OC[C@]1(C)O.CN[C@@H]1[C@@H](O)[C@@H](O[C@@H]2[C@@H](O)[C@H](O[C@H]3O[C@H]([C@@H](C)N)CC[C@H]3N)[C@@H](N)C[C@H]2N)OC[C@]1(C)O.CN[C@@H]1[C@@H](O)[C@@H](O[C@@H]2[C@@H](O)[C@H](O[C@H]3O[C@H]([C@@H](C)NC)CC[C@H]3N)[C@@H](N)C[C@H]2N)OC[C@]1(C)O [Prestw-160] | 0.0738 ± 0.27
29 | O=C(O)CCCO [SODIUM OXYBATE, anesthetic] | 1.27 ± 0.56
30 | CC(NC(C)(C)C)C(=O)c1cccc(Cl)c1 (configuration not stated) [Prestw-249] | 0.164 ± 1.3
31 | CN(C)[C@@H]1C(=O)C(C(N)=O)=C(O)[C@@]2(O)C(=O)C3=C(O)c4c(O)cccc4[C@@](C)(O)[C@H]3C[C@@H]12 [Prestw-140] | 0.421 ± 0.045
32 | NCC(CC(=O)O)c1ccc(Cl)cc1 (configuration not stated) [Prestw-85] | 0.603 ± 0.34
33 | C#C[C@]1(O)CC[C@H]2[C@@H]3CCC4=CC(=O)CCC4=C3C=C[C@@]21CC [Prestw-1267] | 0.182 ± 1.1
34 | CN[C@@H](C)[C@@H](O)c1ccccc1 [Pseudoephedrine] | 2.06 ± 1.3
35 | CN1C[C@H](C(=O)N[C@]2(C)O[C@@]3(O)[C@@H]4CCCN4C(=O)[C@H](Cc4ccccc4)N3C2=O)C=C2c3cccc4[nH]cc(c34)C[C@H]21 [ERGOTAMINE TARTRATE, analgesic, antimigraine] | 1.78 ± 2.1
36 | [O-][n+]1ccccc1[S-].[O-][n+]1ccccc1[S-].[Zn+2] | -3.33 ± 0.34
37 | COc1ccc2c(c1)[C@]13CCCC[C@@H]1[C@H](C2)N(C)CC3 [Prestw-359] | 0.683 ± 0.75
38 | C=C[C@H]1CN2CC[C@H]1C[C@H]2[C@H](O)c1ccnc2ccccc12 [CINCHONIDINE    antimalarial    ex Cinchona spp] | 0.738 ± 1
39 | C=CC[C@]1(O)CC[C@H]2[C@@H]3CCC4=CC(=O)CCC4=C3C=C[C@@]21C [ALTRENOGEST, progestinantineoplastic] | 1.01 ± 1.3
40 | C=C[C@H]1CN2CC[C@H]1C[C@@H]2[C@@H](O)c1ccnc2ccccc12 [CINCHONINE    antimalarial    ex Cinchona spp] | 2.79 ± 4
41 | CC(Cc1ccc(O)cc1)NCC(O)c1cc(O)cc(O)c1 (configuration not stated) [Prestw-282] | 0.889 ± 0.38
42 | C1CCc2nnnn2CC1 [Prestw-162] | 0.35 ± 0.9

Reformatted: entries from further up.
Row,Compound,pThr231Tau/total Tau ratio Z-score
8,CCCC(C)C1(CC)C(=O)NC(=O)NC1=O (configuration not stated) [Prestw-1491],1.15 ± 0.15
9,C[C@]12C[C@H]3S[C@H]3C[C@@H]1CC[C@@H]1[C@@H]2CC[C@]2(C)[C@@H](O)CC[C@@H]12 [Prestw-1006],-0.0986 ± 0.64
10,COP(=O)(OC)C(O)C(Cl)(Cl)Cl (configuration not stated) [Prestw-51],-0.0436 ± 0.26

(further entries)

Row | Compound | pThr231Tau/total Tau ratio Z-score
43 | CNC(C)[C@@H]1CC[C@@H](N)[C@@H](O[C@H]2[C@H](O)[C@@H](O[C@H]3OC[C@](C)(O)[C@H](NC)[C@H]3O)[C@H](N)C[C@@H]2N)O1.CN[C@@H]1[C@@H](O)[C@@H](O[C@@H]2[C@@H](O)[C@H](O[C@H]3O[C@H](C(C)N)CC[C@H]3N)[C@@H](N)C[C@H]2N)OC[C@]1(C)O.CN[C@@H]1[C@@H](O)[C@@H](O[C@@H]2[C@@H](O)[C@H](O[C@H]3O[C@H](CN)CC[C@H]3N)[C@@H](N)C[C@H]2N)OC[C@]1(C)O (some centres not stated) | 0.446 ± 1.6
44 | C[C@]12CC[C@@H](O)C[C@@H]1CC[C@@H]1[C@@H]2CC[C@]2(C)C(=O)CC[C@@H]12 [Prestw-440] | 0.491 ± 0.048
45 | C[C@]12CC[C@@H](O)C[C@@H]1CC[C@@H]1[C@@H]2CC[C@]2(C)C(=O)CC[C@@H]12 [Prestw-411] | 0.559 ± 1.4
46 | C[C@]12CC[C@@H](O)C[C@@H]1CC[C@@H]1[C@@H]2CC[C@]2(C)C(=O)CC[C@@H]12 [Prestw-697] | 0.695 ± 0.39
47 | O=c1[nH]c2ccccc2n1CCCN1CCC(n2c(=O)[nH]c3cc(Cl)ccc32)CC1 [Prestw-340] | -0.536 ± 1.4
48 | COP(=S)(OC)Oc1ccc(SC)c(C)c1 [FENTHION    Use: insecticide, ectoparasiticide] | 0.693 ± 0.05
49 | CC(C)[N+](C)(CCC(C(N)=O)(c1ccccc1)c1ccccc1)C(C)C [Prestw-770] | -1.19 ± 0.79
50 | C#C[C@]1(O)CC[C@H]2[C@@H]3CCC4=CC(=O)CC[C@]4(C)[C@H]3CC[C@@]21C [Prestw-261] | -0.332 ± 0.34
51 | CC(C)CC(N(C)C)C1(c2ccc(Cl)cc2)CCC1 (configuration not stated) [Prestw-1159] | -0.282 ± 0.82
52 | Cc1ccc(N=CN(C)C=Nc2ccc(C)cc2C)c(C)c1 [AMITRAZ, scabicide] | -0.746 ± 1.1
53 | S=C(NC1CCCCC1)N1CCC(c2cnc[nH]2)CC1 [Prestw-922] | -0.793 ± 2
54 | CCCC(C)C1(CC)C(=O)N=C(S)NC1=O (configuration not stated) [THIOPENTAL SODIUM    Therap cat: anesthetic] | -0.606 ± 0.27
55 | Cc1cc(O)ccc1Cl [CHLOROCRESOL    Therap cat:  Topical antiseptic] | 0.193 ± 1.6
56 | CN1[C@@H]2CC[C@H]1CC(OC(=O)[C@H](CO)c1ccccc1)C2 (some centres not stated) [Prestw-233] | 0.211 ± 2.7
57 | C=C(C)[C@H]1CN[C@H](C(=O)O)[C@H]1CC(=O)O [KAINIC ACID    Occurrence: Digenia simplex] | -0.213 ± 0.34
58 | COc1ccc(CN2CCNCC2)c(OC)c1OC [Prestw-549] | 1.02 ± 1.4
59 | CC[C@H]1CN2CC[C@H]1C[C@@H]2[C@@H](O)c1ccnc2ccc(OC)cc12 | -0.344 ± 1.2
60 | C=C[C@H]1CN2CC[C@H]1C[C@H]2[C@H](OC(=O)OCC)c1ccnc2ccc(OC)cc12 [QUININE ETHYL CARBONATE    Therap cat: antimalarial] | 4.19 ± 5.9
61 | CN1CCC2(C)c3cc(O)ccc3N(C)C12 (configuration not stated) [Prestw-1082] | -0.0305 ± 0.57
62 | C[C@]12CC[C@H]3[C@@H](CCC4=CC(=O)CC[C@@H]43)[C@@H]1CC[C@@H]2O [Prestw-982] | -0.379 ± 1.8
